At least one compound was matched to its structure with a doubt left.
System: ctDNA Y220C
Assay: ctDNA Y220C variant allele frequency (NGS assay)
Format: in vivo, human

CNC(=O)c1ccc(NCC#Cc2cc3c(N[C@@H]4CCN(C)C[C@@H]4F)cccc3n2CC(F)(F)F)c(OC)c1 [Compound 1, 4-((3-(4-(((3S,4R)-3-fluoro-1-methylpiperidin-4-yl)amino)-1-(2,2,2-trifluoroethyl)-1H-indol-2-yl)prop-2-yn-1-yl)amino)-3-methoxy-N-methylbenzamide]
ctDNA data (Phase 1 patients): supported early and sustained activity
Y220C ctDNA VAF vs radiographic tumor shrinkage (small cell lung cancer patient (Example 7, FIG. 11)): correlation between radiographic tumor shrinkage and decreased levels of Y220C ctDNA VAF

— patent US20250319063A1, “METHODS AND COMPOUNDS FOR RESTORING MUTANT P53 FUNCTION” (PMV PHARMACEUTICALS, INC., priority 2022, published 2025)
